In patent US20090074845A1, “TRANSDERMAL ACTIVE PRINCIPLE DELIVERY MEANS” (priority 2005, published 2009):

Columns and labels:
[1] = test system: Varicella Zoster Virus (Ellen strain)
[2] = at therapeutic concentrations; cited from earlier work
[3] = Drug permeation through porcine ear skin (Franz diffusion cells)
[4] = 72 hours
[5] = patches F:D 1:1 across pig skin
[6] = Diffusional release of D and F from drug-in-adhesive patches; assay type: physicochemical

Q: With `NS(=O)(=O)c1cc(C(=O)O)c(NCc2ccco2)cc1Cl` [Furosemide, 4-chloro-N-furfuryl-5-sulfamoylanthranilic acid] as the compound, how does the Apparent maximum flux (Collodion F:D 1:1 across pig skin) read?
A: 4.3423 μgcm^−2 h^−1

Q: What about the AMF (Collodion, calculated between 6-12 hr) of the same compound?
A: 4.3423 μg cm^−2 h^−1

Q: What about the inhibition [1] of the same compound?
A: ~50%

Q: What about the unbound fraction [2] of the same compound?
A: 2.3-4.4%

Q: And the “rate of furosemide penetrating porcine ear skin” value [3]?
A: 4.32e-08 cm/s

Q: And the “Kp Mean” value ([3]; through porcine ear skin, mean over formulations)?
A: 4.32e-07 cm/s

Q: And the “accumulation within the skin” value [4]?
A: did not accumulate within the skin

Q: What about the Apparent flux maximum [5] of the same compound?
A: 0.158 μgcm^−2 h^−1

Q: And the “maximum mass released, maximal dose of furosemide” value [6]?
A: ~432.02 μg cm^−2

Q: What about the “MRC5 cell metabolism (MTT assay)” value (MRC5 cells) of the same compound?
A: normal levels of metabolism
